This passage reports binding results from PMC3471880.

Results are given in words; binding and its absence hold for the method and conditions named. Some entries that bind do so weakly or less than the wild type. Where a sequence is shown, tags or fusion partners need not be part of it.

Assay [1] addresses T1, secreted IL-2 (interleukin-2) (mouse (endogenous in CD4+ T cells of C57BL/6 mice)) (UniProt P04351).
T1 sequence: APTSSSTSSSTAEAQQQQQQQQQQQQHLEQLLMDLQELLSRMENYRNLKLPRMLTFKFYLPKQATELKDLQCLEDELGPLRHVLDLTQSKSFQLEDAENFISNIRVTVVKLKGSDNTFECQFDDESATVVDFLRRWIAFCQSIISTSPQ
Nature of the assay: ELISA; IL-2 ELISA of supernatants 24 h after Th17 activation in the presence of decreasing doses of sCD25 (20, 10, 5, 1 µg/ml); loss of detectable IL-2 as read-out; only the binder purified. For orientation: In an ELISA, binding on a coated surface is turned into a signal by an enzyme label.

The target of assay [2] is T1, secreted IL-2 (interleukin-2) (mouse (endogenous in CD4+ T cells of C57BL/6 mice)). The assay can be described thus: ELISA; mixed sandwich ELISA: capture with an anti-IL-2 antibody, detection with an anti-CD25 antibody; supernatants of CD4+ T cells activated 24 h under Th17 conditions with or without sCD25 (20 µg/ml); only the binder purified.

B1: Recombinant murine sCD25His (soluble IL-2 receptor alpha chain) (receptor, UniProt P01590 22-236)
chain: ELCLYDPPEVPNATFKALSYKNGTILNCECKRGFRRLKELVYMRCLGNSWSSNCQCTSNSHDKSRKQVTAQLEHQKEQQTTTDMQKPTQSMHQENLTGHCREPPPWKHEDSKRIYHFVEGQSVHYECIPGYKALQRGPAISICKMKCGKTGWTQPQLTCVDEREHHRFLASEESQGSRNSSPESETSCPITTTDFPQPTETTAMTETFVLTMEYK
In the case of B1, the binding entry in assay [1] and in assay [2] was “binds” in each case.
